In the supplement of paper PMC12873370:
Values joined by “and” are separate entries in the source; they are usually repeats but may differ in a detail not shown here. Identical values can stand only once. Some of the results follow. Repeats are few or missing, and single values can be far off.

How the values were obtained:
[1] = tested on: MEPP (mouse ovarian epithelium Trp53/Pten KO); assay: cell viability relative to untreated (fraction); higher = less growth inhibition; conditions: 5 µM; 3 days
[2] = tested on: PREPP (mouse prostate epithelium Trp53/Pten KO); assay: as above; conditions: 5 µM; 3 days

Row | SMILES | cell viability [1] | cell viability [2]
1 | CC(C)C(C)C(O)C(O)C(C)C1CCC2C3COC(=O)C4CC(O)C(O)CC4(C)C3CCC12C (stereo not drawn) | 1.41 | 0.826
2 | CC(O)Cn1cnc2c1c(=O)n(C)c(=O)n2C (stereo not drawn) | 0.853 | 0.862
3 | Nc1ccc(S(N)(=O)=O)cc1 | 0.803 | 0.97
4 | N=C(N/N=C/c1ccc(Cl)cc1)N/N=C/c1ccc(Cl)cc1 | 1.11 | 0.849
5 | CC(=O)c1ccccc1O | 1.08 | 0.956
6 | N[C@@H](Cc1ccc(O)c(I)c1)C(=O)O | 0.855 | 1.32
7 | C/C=C(/C)C(=O)OC(C)(C)[C@@H]1Cc2c(ccc3ccc(=O)oc23)O1 | 1.26 | 1
8 | CN1CC(=O)NC1=O | 0.803 | 1.02
9 | CCCN[C@H]1CCc2nc(N)sc2C1 | 1.14 | 0.894
10 | CC[C@H]1OC(=O)[C@H](C)[C@@H](O[C@H]2C[C@@](C)(OC)[C@@H](O)[C@H](C)O2)[C@H](C)[C@@H](O[C@@H]2O[C@H](C)C[C@H](N(C)C)[C@H]2O)[C@](C)(OC)C[C@@H](C)C(=O)[C@H](C)[C@@H](O)[C@]1(C)O | 1.07 | 0.944
11 | Cc1nc(Nc2ncc(C(=O)Nc3c(C)cccc3Cl)s2)cc(N2CCN(CCO)CC2)n1 | 0.419 | 0.41
12 | CC(C)CC(=O)NCC(=O)O | 1.06 | 0.862
13 | O=C1NCC2(CCN(CCc3ccccc3)CC2)O1 | 1.4 | 0.95
14 | NC(=O)c1cn(Cc2c(F)cccc2F)nn1 | 0.852 | 1.01
15 | Nc1ncnc2c1ncn2[C@@H]1O[C@@H]2COP(=O)(O)O[C@H]2[C@H]1O | 0.854 | 0.984
16 | O=C(O)CCCCCCCCCCC(=O)O | 1.18 | 0.179
17 | CC1(C)O[C@H]2CC(=O)OC[C@]23[C@H]2CC[C@@]4(C)[C@H](c5ccoc5)OC(=O)[C@H]5O[C@]54[C@]2(C)C(=O)C[C@@H]13 | 1.12 | 0.922
18 | NC(N)=O | 1.22 | 0.98
19 | C=C(C)[C@@H]1CC[C@]2(C)[C@H](CC=C3[C@@H]4[C@@H](C)[C@H](C)CC[C@]4(C)CC[C@]32C)[C@@]1(C)CCC(=O)O | 1.13 | 1.25
20 | CC[C@H](C)[C@H](NC(=O)[C@H](Cc1ccc(O)cc1)NC(=O)[C@@H](NC(=O)[C@H](CCCNC(=N)N)NC(=O)[C@@H](N)CC(=O)O)C(C)C)C(=O)N[C@@H](Cc1cnc[nH]1)C(=O)N1CCC[C@H]1C(=O)N[C@@H](Cc1ccccc1)C(=O)O | 0.998 | 0.742
21 | C/C=C1\[C@H]2C=C(C)C[C@]1(N)c1ccc(=O)[nH]c1C2 | 1.2 | 0.88
22 | COC(=O)[C@@H]1[C@H]2C[C@H]3c4[nH]c5ccccc5c4CCN3C[C@@H]2CC[C@@H]1O | 1.19 | 1.08
23 | COc1ccc(O)cc1 | 0.964 | 0.927
24 | COc1cc(O)c2c(c1)oc(=O)c1c3cc(O)c(O)cc3oc21 | 1 | 0.886
25 | COc1ccc([C@@H]2CC(=O)c3c(O)cc(O[C@@H]4O[C@H](CO)[C@@H](O)[C@H](O)[C@H]4O[C@@H]4O[C@@H](C)[C@H](O)[C@@H](O)[C@H]4O)cc3O2)cc1O | 1.38 | 1.06
26 | Cc1cccc(O)c1 | 1.01 | 0.895
27 | CC12CCC(C1)C(C)(C)C2=O (stereo not drawn) | 0.942 | 0.982

Row | SMILES | cell viability [1] | cell viability [2]
28 | N[C@@H](Cc1c[nH]cn1)C(=O)O | 1.06 | 0.978
29 | C[C@@H](O)[C@H]1C(=O)N2C(C(=O)O)=C(S[C@@H]3CN[C@H](C(=O)N(C)C)C3)[C@H](C)[C@H]12 | 0.993 | 0.987
30 | OC[C@@H](O)[C@@H](O[C@H]1O[C@H](CO)[C@@H](O)[C@H](O)[C@H]1O)[C@H](O)[C@@H](O)CO | 0.807 | 1.06
31 | CCC[C@@H]1C[C@@H](C(=O)N[C@@H]([C@H]2O[C@H](SC)[C@H](OP(=O)(O)O)[C@@H](O)[C@H]2O)[C@H](C)Cl)N(C)C1 | 1.11 | 1.17
32 | O=C[C@@H](O)[C@H](O)[C@@H](O)CO | 0.81 | 0.92
33 | C[C@]12CCC(=O)C=C1CC[C@@H]1[C@@H]2[C@@H](O)C[C@@]2(C)[C@H]1CC[C@]2(O)C(=O)COC(=O)CCC(=O)O | 0.84 | 0.802
34 | COc1cccc(-c2cc(=O)c3ccccc3o2)c1N | 1.14 | 0.644
35 | COc1ccc(C(C)=O)c(O)c1 | 1.08 | 1.25
36 | OCc1ccccc1O | 0.923 | 1.14
37 | CCn1cc(C(=O)O)c(=O)c2cc(F)c(N3CCNCC3)nc21 | 0.956 | 1.02
38 | COc1ccc(-c2cc(=O)c3c(O)cc(O)cc3o2)cc1 | 1.25 | 1.03
39 | COc1cc(C)c(/C=C/C(C)=C/C=C/C(C)=C/C(=O)O)c(C)c1C | 1.11 | 1.06
40 | NC(C=O)C(O)C(O)C(O)CO (stereo not drawn) | 0.952 | 0.804
41 | C[C@H](N)C(=O)O | 1.03 | 1.04
42 | CC[C@H](C)C[C@H](C)CCCCCCCCC(=O)N[C@H]1C[C@@H](O)[C@@H](O)NC(=O)[C@@H]2[C@@H](O)CCN2C(=O)[C@H]([C@H](O)CC(N)=O)NC(=O)[C@H]([C@H](O)[C@@H](O)c2ccc(O)cc2)NC(=O)[C@@H]2C[C@@H](O)CN2C(=O)[C@H]([C@@H](C)O)NC1=O | 0.798 | 0.957
43 | O=C1OC2(c3ccccc31)c1ccc(O)c(O)c1Oc1c2ccc(O)c1O | 0.786 | 0.896
44 | OC[C@H]1O[C@H](O[C@H]2O[C@H](CO)[C@@H](O)[C@H](O)[C@H]2O)[C@H](O)[C@@H](O)[C@@H]1O | 0.889 and 0.92 | 1.01 and 0.614
45 | FCOC(C(F)(F)F)C(F)(F)F | 0.867 | 0.875
46 | CCCOC(=O)c1ccc(O)cc1 | 1.49 | 0.944
47 | CN(C)CCOC(c1ccccc1)c1ccccc1 | 0.947 | 0.798
48 | C=CC(=O)Nc1cc2c(Nc3ccc(F)c(Cl)c3)ncnc2cc1OCCCN1CCOCC1 | 0.908 | 0.293
49 | NCCC(=O)O | 0.937 | 1
50 | Cn1cnc2c(ncn2[C@@H]2O[C@H](CO)[C@@H](O)[C@H]2O)c1=N | 1.03 | 1.03
51 | C=CC(C)(C)c1cc(/C=C/C(=O)c2ccc(O)cc2)c(OC)cc1O | 1.13 | 1
52 | NCCC(=O)N[C@@H](Cc1c[nH]cn1)C(=O)O | 1.12 | 0.986
53 | COc1ccc(-c2oc3cc(O)cc(O)c3c(=O)c2O)cc1 | 1.06 | 0.855
54 | O=C1OC[C@H]2O[C@@H](O)[C@H](O)[C@@H](O)[C@@H]2OC(=O)c2cc(O)c(O)c(O)c2-c2c(O)c(O)c3oc(=O)c4c(c(O)c(O)c5oc(=O)c2c3c54)-c2c1cc(O)c(O)c2O | 0.963 | 0.979

Row | SMILES | cell viability [1] | cell viability [2]
55 | N=C(N)NCCCC[C@@H]1NC(=O)CCSSC[C@@H](C(N)=O)NC(=O)[C@@H]2CCCN2C(=O)[C@H](Cc2c[nH]c3ccccc23)NC(=O)[C@H](CC(=O)O)NC(=O)CNC1=O | 0.741 | 0.868
56 | C=CCCCCCCCCC(=O)O | 0.907 | 0.92
57 | N[C@@H](Cc1cc(I)c(Oc2ccc(O)c(I)c2)c(I)c1)C(=O)O | 0.86 | 0.974
58 | C/C1=C2N=C(/C=C3N=C(/C(C)=C4\[N-]C(C(CC(N)=O)C4(C)CCC(=O)NCC(C)OP(=O)([O-])OC4C(CO)OC(n5cnc6cc(C)c(C)cc65)C4O)C4(C)N=C1C(CCC(N)=O)C4(C)CC(N)=O)C(CCC(N)=O)C\3(C)C)C(CCC(N)=O)C/2(C)CC(N)=O.[CH3-].[Co+3] (stereo not drawn) | 0.559 | 0.74
59 | C#C[C@]1(O)CC[C@H]2[C@@H]3CCC4=CC(=O)CC[C@@H]4[C@H]3CC[C@@]21CC | 0.886 | 0.965
60 | O=C1CN(/N=C/c2ccc([N+](=O)[O-])o2)C(=O)N1 | 0.86 | 0.683
61 | O=C(O)CCCC[C@@H]1SC[C@@H]2NC(=O)N[C@@H]21 | 1.27 | 0.959
62 | CC(=O)N[C@@H](CC(C)C)C(=O)O | 1.28 | 0.959
63 | O=C(O)[C@H]1O[C@@H](O)[C@H](O)[C@@H](O)[C@@H]1O | 1.07 | 1.03
64 | CC(C)=C1C/C=C(\C)CC/C=C(\C)CC1=O | 1.09 | 0.824
65 | O=C1OCCN1/N=C/c1ccc([N+](=O)[O-])o1 | 1.18 | 0.816
66 | O=c1ccn([C@@H]2O[C@H](COP(=O)(O)OP(=O)(O)O)[C@@H](O)[C@H]2O)c(=O)[nH]1 | 0.799 | 0.974
67 | COc1cccc2c1C(=O)c1c(O)c3c(c(O)c1C2=O)C[C@@](O)(C(C)=O)C[C@@H]3O[C@H]1C[C@H](N)[C@H](O)[C@H](C)O1 | 0.405 | 0.296
68 | C=C[C@@]1(C)CC(=O)[C@]2(O)[C@@]3(C)[C@@H](O)CCC(C)(C)[C@@H]3[C@H](O)[C@H](OC(C)=O)[C@@]2(C)O1 | 1.01 | 0.945
69 | O=c1ccc2cc3ccoc3cc2o1 | 1.81 | 0.937
70 | O=C(O[C@@H]1Cc2c(O)cc(O)cc2O[C@@H]1c1ccc(O)c(O)c1)c1cc(O)c(O)c(O)c1 | 0.879 | 0.913
71 | C#CC1(O)CC[C@H]2[C@@H]3CCC4=CC(=O)CC[C@@H]4[C@H]3CC[C@@]21CC (stereo partly drawn) | 1.07 | 0.828
72 | CC(=O)NC(Cc1ccccc1)C(=O)O (stereo not drawn) | 1.13 | 0.973
73 | C[C@H](N)C(=O)N[C@@H](CCC(N)=O)C(=O)O | 0.784 | 0.915
74 | Cc1cc(O)cc(O)c1 | 1.23 | 1.05
75 | O=C(O)c1ccc(O)c(O)c1 | 0.953 | 0.915
76 | CC[C@@]1(O)C(=O)OCc2c1cc1n(c2=O)Cc2cc3c(CN(C)C)c(O)ccc3nc2-1 | 0.516 | 0.828
77 | CC[C@H]1OC(=O)[C@H](C)[C@@H](O[C@H]2C[C@@](C)(OC)[C@@H](O)[C@H](C)O2)[C@H](C)[C@@H](O[C@@H]2O[C@H](C)C[C@H](N(C)C)[C@H]2O)[C@](C)(O)C[C@@H](C)CN(C)[C@H](C)[C@@H](O)[C@]1(C)O | 0.869 and 0.947 | 0.949 and 0.796
78 | O=C(O)c1ccnc2ccccc12 | 1.02 | 0.957
79 | CC(=O)N(O)CCCCCNC(=O)CCC(=O)N(O)CCCCCNC(=O)CCC(=O)N(O)CCCCCN | 0.861 | 0.912
